Hit rate of the full screen: of about 300,000 compounds, about 3,700 (1.2%) were called active. Inconclusive means that the source gave no clear call. Such entries were picked first, then a sample of the others. Calls come from the whole dose curve; tested in HEK293 cells. Potencies beside an inconclusive call are fits to weak or partial responses and may not hold up.
Assay: qHTS for Inhibitors of binding or entry into cells for Lassa Virus; note: nearly all actives have a fitted effect of over 50% in size
Conditions: Lassa virus pseudotype entry inhibition, cell reporter; activity change, negative = inhibition: at 37.9 µM (top of the series) unless noted
% is set by controls: 0 for no effect and ±100 for the full control effect; potency is the fitted concentration of half-maximal effect.

Row | SMILES | activity change, negative = inhibition | Potency
1 | Cc1ccnc(NC(=O)CC(NC(=O)c2ccccc2Cl)c2ccccc2)c1 (stereo not drawn) | inactive: 2.46% | 
2 | O=c1cc(Nc2ccc3c(c2)OCCO3)[nH]c(=O)n1-c1ccc(Br)cc1 |  | inconclusive: 18.3 µM [inhibitor, partial curve, poor fit]
3 | O=C1c2[nH]nc(-c3ccc(F)cc3)c2C(c2ccccc2F)N1c1ccccc1 (stereo not drawn) |  | inconclusive: 25.1 µM [inhibitor, single point]
4 | CSc1ncc2c(n1)-c1ccccc1N(Cc1ccccc1)S2(=O)=O | inactive: 6.88% [at 46.1 µM] | 
5 | Cc1cc(C)n(CCNS(=O)(=O)c2ccccc2)n1 | inactive: -2.29% [at 46.1 µM] | 
6 | CN=C(SCC(=O)c1cccc(Cl)c1)c1c(O)n(C)c(=O)n(C)c1=O |  | inconclusive: 3.55 µM [activator, partial curve, poor fit]
7 | COc1ccc(Br)cc1CNC(=O)CN1C(=O)c2cccnc2Oc2ccc(C)cc21 |  | inconclusive: 11.2 µM [inhibitor, partial curve, poor fit]
8 | Cc1ccc(NC(=O)CSc2nnc(N)s2)cc1S(=O)(=O)N1CCOCC1 |  | inconclusive: 22.4 µM [activator, partial curve, poor fit]
9 | CCn1c(=O)c2cc(C(=O)N(C)c3ccccc3F)sc2c2ccccc21 | inactive: -4.33% [at 46.1 µM] | 
10 | CCCc1nnc(SCC(=O)Nc2ccc(OC)cc2)o1 |  | inconclusive: 2.82 µM [inhibitor, full curve, poor fit]
11 | O=C(O)CSc1ncnc2sc(-c3ccccc3)cc12 | inactive: -8.89% | 
12 | Cc1ccccc1CN1C[C@@H]2C[C@@H](c3cn[nH]c3-c3ccccc3)N3CCC[C@@]23C1=O |  | inconclusive: 35.5 µM [inhibitor, single point]
13 | O=C(Nc1ccc2c(c1)OCCO2)c1cccc(Cl)c1 |  | inconclusive: 0.794 µM [activator, single point]
14 | COCCn1c(C)cc(C(=O)COC(=O)c2cccnc2SC)c1C |  | inconclusive: 35.5 µM [inhibitor, single point]
15 | CCC(=O)Oc1ccc(C(=O)Nc2ccc3c(c2)C(=O)N(C2CCCCC2)C3=O)cc1 |  | inconclusive: 29.1 µM [inhibitor, single point]
16 | CCOC(=O)C1CCN(C(=O)c2c(C)oc3c2C(=O)c2ccccc2C3=O)CC1 |  | inconclusive: 9.2 µM [inhibitor, partial curve]
17 | O=C(Nc1ccc([N+](=O)[O-])cc1)Nc1ccc(Cl)cc1F |  | inconclusive: 11.2 µM [inhibitor, partial curve, poor fit]
18 | COc1ccccc1N1CCN(Cc2cc(=O)oc3cc(C)ccc23)CC1 |  | inconclusive: 2.81 µM [activator, single point]

A portion from the list above, for reference:
Row | SMILES | activity change, negative = inhibition | Potency
4 | CSc1ncc2c(n1)-c1ccccc1N(Cc1ccccc1)S2(=O)=O | inactive: 6.88% [at 46.1 µM] | 
5 | Cc1cc(C)n(CCNS(=O)(=O)c2ccccc2)n1 | inactive: -2.29% [at 46.1 µM] | 

Source: PubChem BioAssay AID540256 (National Center for Advancing Translational Sciences (NCATS), 2011)
